Data as given in PubChem BioAssay AID504784 (Drosophila RNAi Screening Center, 2011)
Test: 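Fly genes whose silencing alters how much lipid cells keep in droplets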 (primary screen). Cells: Drosophila Kc167 embryonic cells. Reagent: long dsRNA against Drosophila genes, about 250 ng dsRNA per well. Duration: 4 days. Conditions: cells fed 400 µM oleic acid bound to BSA. Detection: 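Cells imaged and segmented; ratio of lipid droplet area to nuclear area, log-transformed, then normalised as a B-score over the screen; higher means more stored lipid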. Direction: droplet/nuclear area B-score: higher = more stored lipid (overstorage).
In all, the deposit lists about 17,000 reagents; below is a random part of those that have a named target and a result. 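Each column is one replicate's B-score; the combined score over replicates was not deposited, so single values may mislead.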 Names joined by + are all predicted targets of the reagent. Not all columns of the deposit are shown. No sequences are given here.

The opening 5 entries, ahead of the listing:
| Target gene | dsRNA | droplet/nuclear area B-score, replicate 1 | droplet/nuclear area B-score, replicate 2 |
| --- | --- | --- | --- |
| mam | DRSC05468 | -2.14 | 0.492 |
| mam | DRSC07648 | 1.6 | 1.35 |
| mam | DRSC22971 | -0.022 | -1.56 |
| CG14684 | DRSC14907 | -0.148 | 0.342 |
| rempA | DRSC00327 | -0.496 | 1.27 |

Main list, repeating the preview:
| Target gene | dsRNA | droplet/nuclear area B-score, replicate 1 | droplet/nuclear area B-score, replicate 2 |
| --- | --- | --- | --- |
| mam | DRSC05468 | -2.14 | 0.492 |
| mam | DRSC07648 | 1.6 | 1.35 |
| mam | DRSC22971 | -0.022 | -1.56 |
| CG14684 | DRSC14907 | -0.148 | 0.342 |
| rempA | DRSC00327 | -0.496 | 1.27 |
| CG13036 (retired record) | DRSC09916 | -0.207 | 0.294 |
| CG6908 | DRSC16131 | 0.0135 | 0.0414 |
| DCX-EMAP | DRSC10012 | 1.16 | -0.102 |
| DCX-EMAP | DRSC10013 | -0.818 | 4.02 |
| kl-5 (retired record) | DRSC20707 | -1.01 | 1.81 |
| kl-5 (retired record) | DRSC20736 | 1.07 | -0.374 |
| kl-5 (retired record) | DRSC20773 | 0.34 | 1.93 |
| kl-5 (retired record) | DRSC21161 | 6.3 | 0.0192 |
| b | DRSC03487 | 0.254 | -0.0787 |
| CG32681 | DRSC17646 | 0.0632 | -0.0126 |
| CG8046 | DRSC07059 | -2.63 | -1.05 |
| CG15717 | DRSC19684 | -0.391 | -0.152 |
| CG7130 | DRSC11797 | 1.04 | -0.0741 |
| rumpel | DRSC18436 | -0.6 | 1.44 |
| Mrtf | DRSC08263 | 0.0158 | -0.0576 |
| Mrtf | DRSC08410 | 0.693 | 0.468 |
| Mrtf | DRSC08411 | -0.478 | 0.749 |
| Mrtf | DRSC23194 | -0.042 | 0.529 |
| CG11400 | DRSC06070 | -1.69 | 2.73 |
| bys | DRSC18748 | 1.08 | 0.0878 |
| Alg10 | DRSC10892 | 1.27 | -1.05 |
| Pdha | DRSC18413 | -1.85 | -0.619 |
| CG13705 | DRSC08314 | 0.0347 | 0.145 |
| CG13705 | DRSC22691 | -1.01 | -1.56 |
| CR42546 | DRSC03711 | -1.61 | 1.29 |
| Pgant7 | DRSC19991 | 0.327 | 0.407 |
| tra2 | DRSC07708 | -1.02 | -0.704 |
| E(spl)m4-BFM | DRSC16992 | -0.639 | -1.01 |
| obst-J | DRSC10821 | -0.415 | 0.664 |
| COX8 | DRSC11814 | 5.04 | 7.09 |
| CG9855 | DRSC12344 | 0.0516 | -0.148 |
| CG1847 | DRSC19810 | -0.179 | 0.884 |
| NUCB1 | DRSC22137 | 0.956 | -0.2 |
| CG7214 | DRSC03028 | 0.651 | 0.565 |
| CG7214 | DRSC21869 | 1.47 | -2.02 |
| CG15545 | DRSC15083 | -1.59 | -2.3 |
| CG5641 | DRSC15852 | -0.163 | 6.98 |
| Pgam5 | DRSC18551 | -0.132 | -0.681 |
| Ubc84D | DRSC12610 | 0.786 | -0.0679 |
| CG11563 | DRSC14327 | 1.03 | -0.801 |
| CG18748 | DRSC15385 | 1.7 | 1.37 |
| mu2 | DRSC08726 | -1.61 | 0.648 |
| mu2 | DRSC21534 | -1.01 | 1.07 |
| GstE8 | DRSC06678 | -1.42 | -0.709 |
| Tsen54 | DRSC10527 | -2.6 | -1.07 |
| beat-IIa | DRSC14813 | -0.36 | 0.236 |
| beat-IIa | DRSC14814 | 1.02 | 0.122 |
| Atg10 + CG18853 + CG12822 | DRSC20757 | -0.428 | 1.46 |
| Blos4 | DRSC10151 | -0.0442 | 0.782 |
| Flo1 | DRSC07427 | -2.69 | -3.08 |
| qin | DRSC14782 | -2.07 | -2.44 |
| Coq8 | DRSC19900 | -0.685 | 0.232 |
| mthl6 | DRSC10234 | -0.332 | -0.632 |
| endos | DRSC10658 | 0.453 | -0.858 |
| CG12935 + Nop10 | DRSC07025 | -1.04 | -0.495 |
| Cpr5C | DRSC18340 | -0.681 | 0.619 |
| CG8475 | DRSC03091 | -0.808 | -2.84 |
| mael | DRSC11894 | -0.965 | 0.0187 |
| Liprin-alpha | DRSC02132 | -0.0225 | 0.497 |
| Zip88E | DRSC15562 | 0.0899 | -0.217 |
| CG11191 | DRSC06056 | 0.84 | -1.83 |
| CG11191 | DRSC23224 | -1.76 | -1.3 |
| CG42809 + CG42810 | DRSC02532 | 0.185 | -0.443 |
| CG42809 + CG42810 | DRSC02533 | -2.58 | -0.399 |
| mura | DRSC16483 | 1.77 | 0.887 |
| mura | DRSC16484 | 1.09 | 0 |
| mura | DRSC23145 | -0.261 | 0.0892 |
| Arv1 | DRSC11491 | 0.172 | 0.753 |
| CG18596 | DRSC15355 | -1.25 | -3.54 |
| lectin-24A | DRSC00604 | 0.544 | -0.921 |
| PGRP-LB | DRSC14926 | 1.72 | -0.0282 |
| CG9593 | DRSC16508 | -2.16 | 0.453 |
| MED8 | DRSC06426 | 0.281 | 0.535 |
| CG6839 | DRSC10723 | 0.791 | 0.217 |
| CG45263 | DRSC14360 | 0.734 | 0.605 |
| CG45263 | DRSC14361 | 0.422 | 0.156 |
| CG45263 | DRSC14363 | -0.337 | -1.86 |
| Ppr-Y | DRSC20892 | 1.67 | 2.74 |
